Measurements as given in PubChem BioAssay AID485314 (National Center for Advancing Translational Sciences (NCATS), 2010).
Values joined by “and” are separate entries in the source; they are usually repeats but may differ in a detail not shown here. Equal values may be shown once. Hit rate of the full screen: of about 340,000 compounds, about 4,500 (1.3%) were called active. This list was built around the results that the source calls inconclusive (neither active nor inactive); the mix of calls is not that of the screen. Calls follow the shape of the dose curve; as a rule, active = well fitted inhibition curve with a large enough effect; inconclusive = small, poorly fitted or top-dose-only effect, or another doubt; inactive = no such curve, though single readings can be large or run the other way. Where the call is inconclusive, the potency comes from a doubtful curve fit.

biological target: DNA polymerase beta (Homo sapiens) (UniProt P06746); experiment: qHTS Assay for Inhibitors of DNA Polymerase Beta; conditions: Pol beta primer extension/strand displacement, fluorescence kinetic; activity change, negative = inhibition: at 114 µM (top of the series)
Summary of the method: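 10 nM enzyme + cpd, 15 min RT; start with substrate 50 nM final; read 0 min and after 10 min RT. Corrected, normalized data; 4-parameter Hill curve fit.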
% is scaled to controls: 0 for no effect and ±100 for the full control effect; potency is read from the fitted curve at half-maximal effect.

Row | Structure (SMILES) | Potency | activity change, negative = inhibition
1 | C=CCOc1ccc(/C=C2\SC(=Nc3cccnc3)NC2=O)cc1 | inconclusive: 50.1 µM [inhibitor, single point] | 
2 | N#Cc1cnn(-c2ccc(F)cc2)c1N | inactive | 
3 | Cc1ccc(Cl)cc1NC(=O)CCn1cnc2ccccc2c1=O | inconclusive: 89.1 µM [inhibitor, single point] | 
4 | O=C(Nc1ccc2oc(-c3ccccc3)nc2c1)c1cc(-n2cnnc2)ccc1Cl | inconclusive: 17.8 µM [inhibitor, partial curve] | 
5 | COc1ccccc1N1CCN(CC(=O)NC(=O)NCc2ccco2)CC1 | inactive | 
6 | CCOc1ccc(NC(=O)NNC(=O)c2ccc(Cl)cc2Cl)cc1 | inconclusive: 3.55 µM [inhibitor, single point] | 
7 | Cc1cc2ccccc2c(=O)n1CC(=O)NC1CCCCCC1 | inconclusive: 7.08 µM [inhibitor, full curve] | 
8 | Cc1ccc(NC(=O)Cn2c(=O)n(CCC(C)C)c(=O)c3cccnc32)cc1C | inactive | 
9 | CCC(C(=O)NCCC(C)C)N(C(=O)Cn1nnc(-c2ccc(C)cc2)n1)c1cccc(O)c1 (stereo unspecified) | inactive | 
10 | CCN(CC)CCNC(=O)c1cc2c(-c3cccc(OC)c3)nn(C)c2s1 | active: 28.2 µM and active: 70.8 µM | 
11 | COc1ccc([C@H]2C=C3CN(C(=O)OC(C)(C)C)S(=O)(=O)[C@H]3C[C@H]2OC(=O)c2ccc(C(F)(F)F)cc2)cc1 | inconclusive: 31.6 µM [inhibitor, single point] | 
12 | CCc1ccc(-c2nc(CS(=O)CC(=O)NCc3ccco3)c(C)o2)cc1 (stereo unspecified) |  | inconclusive: -47.9% [inhibitor]
13 | O=C(CCSc1ccccc1)N1CCN(c2ccccc2F)CC1 | inconclusive: 89.1 µM [inhibitor, single point] | 
14 | Cc1cc(C)c2oc(-c3ccc(C)c(NC(=S)NC(=O)/C=C/c4ccco4)c3)nc2c1 | active: 20 µM | 
15 | COc1ccccc1OCC(=O)NCCS(=O)(=O)N1CCN(c2ccccc2OC)CC1 | inactive | 
16 | Cn1c(O)c(/C=N/NC(=O)c2cc3ccccc3cc2O)c2ccccc21 | inconclusive: 50.1 µM [inhibitor, partial curve, poor fit] | 
17 | COc1ccc(OCC(=O)N/N=C\c2ccco2)cc1 | inactive | 
18 | O=C(O)c1cccc(NS(=O)(=O)c2ccc3c(c2)C(=O)c2ccccc2C3=O)c1 | inconclusive: 28.2 µM [inhibitor, partial curve, poor fit] | 
19 | Oc1ccc(NCc2ccccc2OCc2ccccc2)cc1 | inactive | 
20 | CN1CCN(c2nc(-c3cccs3)cs2)CC1 | inconclusive: 1.58 µM [inhibitor, full curve, poor fit] | 
21 | COc1ccc(S(=O)(=O)Nc2cccc(-c3ccc(N4CCCCC4)nn3)c2)cc1F | inactive | 
22 | COC(=O)c1ccc(C23CC4(C2)[C@H](CN(Cc2ccc(C(F)(F)F)cc2)[C@@H]4c2ccccc2)C3c2ccc(C(F)(F)F)cc2)cc1 (stereo partly specified) | inconclusive: 0.794 µM [inhibitor, full curve, poor fit] | 
23 | CCCCn1c(SCC(N)=O)nc2c(sc3ccccc32)c1=O | inconclusive: 3.98 µM [inhibitor, full curve, poor fit] | 
24 | CCOC(=O)Nc1sc2c(c1C#N)CCC(C)C2 (stereo unspecified) | inactive | 

4 of the compounds above, tab-delimited:
Row	Structure (SMILES)	Potency	activity change, negative = inhibition
10	CCN(CC)CCNC(=O)c1cc2c(-c3cccc(OC)c3)nn(C)c2s1	active: 28.2 µM and active: 70.8 µM	
18	O=C(O)c1cccc(NS(=O)(=O)c2ccc3c(c2)C(=O)c2ccccc2C3=O)c1	inconclusive: 28.2 µM [inhibitor, partial curve, poor fit]	
22	COC(=O)c1ccc(C23CC4(C2)[C@H](CN(Cc2ccc(C(F)(F)F)cc2)[C@@H]4c2ccccc2)C3c2ccc(C(F)(F)F)cc2)cc1 (stereo partly specified)	inconclusive: 0.794 µM [inhibitor, full curve, poor fit]	
24	CCOC(=O)Nc1sc2c(c1C#N)CCC(C)C2 (stereo unspecified)	inactive	

Continued.

Row | Structure (SMILES) | Potency | activity change, negative = inhibition
25 | CC(C)NC(=S)N/N=C/c1c[nH]c2ccccc12 | inconclusive: 17.8 µM [inhibitor, full curve, poor fit] | 
26 | CN1CCCN(S(=O)(=O)c2ccc(O)c(C(=O)O)c2)CC1 | inconclusive: 44.7 µM [inhibitor, full curve, poor fit] | 
27 | O=c1[nH]n2c(=O)c3c([nH]c2c1N=Nc1cccc(C(F)(F)F)c1)CCCC3 | active: 17.8 µM | 
28 | COc1ccc(C(=O)c2sc3nc(-c4ccccc4)ccc3c2N)cc1OC | active: 12.6 µM | 
29 | COc1cccc(NC(=O)Nc2ccc3c(c2)CCC3)c1 |  | inconclusive: -37.4% [inhibitor]
30 | Cc1ccc(NCc2ccccc2OCc2ccccc2F)cc1 | inactive | 
31 | CC(=O)Oc1ccc2nc(-c3ccco3)oc(=O)c2c1 | inconclusive: 0.631 µM [inhibitor, full curve, poor fit] | 
32 | Cc1cc(=O)c2cc(C(=O)Nc3ccc(F)cc3)ccc2[nH]1 | inactive | 
33 | CC(C)c1ccc2c(c1)c(SC(C)(C)C)c(CC(C)(C)C(=O)O)n2Cc1ccc(Cl)cc1 | active: 50.1 µM and active: 31.6 µM | 
34 | Cc1cc(C)c(NC(=O)CSC2=Nc3ccccc3C3=NC(CC(=O)NCc4cccs4)C(=O)N23)c(C)c1 (stereo unspecified) | inactive | 
35 | Cc1cc(C)cc(NC(=S)N2CCC(NC(=O)c3ccccc3C)CC2)c1 | inconclusive: 3.98 µM [inhibitor, single point] | 
36 | CCN1CCc2nc3sc(C(=O)Nc4ccccc4OC(F)(F)F)c(N)c3cc2C1 | inconclusive: 0.708 µM [inhibitor, full curve, poor fit] | 
37 | COc1ccc(CCNC(=O)C2CCN(S(=O)(=O)c3cccc4nsnc34)CC2)cc1OC | inconclusive: 0.447 µM [inhibitor, full curve, poor fit] | 
38 | COc1ccc(S(=O)(=O)NC(C)C(=O)Nc2cccc([N+](=O)[O-])c2)cc1 (stereo unspecified) | inconclusive: 1.58 µM [inhibitor, full curve, poor fit] | 
39 | COc1cc(NC(=O)COC(=O)CNC(=O)c2ccc(C)s2)cc(OC)c1 | inconclusive: 79.4 µM [inhibitor, single point] | 
40 | COc1ccc(CNC(=O)c2cc3cccc4c3n2CC(C)S4)cc1OC (stereo unspecified) | inactive | 
41 | COc1ccc(Cl)cc1NC(=O)CCN1CCN(C)CC1 | inactive | 
42 | O=C(COc1ccc(Br)cc1)N/N=C1/SCC(=O)N1Cc1ccco1 | inactive | 
43 | Cc1ccccc1OCC(=O)Nc1ccccc1N1CCCCC1 | inconclusive: 89.1 µM [inhibitor, single point] | 
44 | COc1ccc(Cl)cc1NC(=O)Cn1nc(C(F)(F)F)c2c1CCCC2 | inconclusive: 100 µM [inhibitor, single point] | 
45 | COc1ccc(-c2cc(C(=O)N3CCCCCC3)c3ccccc3n2)c(OC)c1 | active: 22.4 µM | 
46 | N#C/C=C1/NC(=O)c2ccccc2S1 | inconclusive: 20 µM [inhibitor, full curve] | 
47 | c1ccc(-c2nc(NCc3cccnc3)c3ccccc3n2)cc1 | inconclusive: 4.47 µM [inhibitor, full curve, poor fit] | 
48 | Cc1cc(Cl)ccc1OC(C)C(=O)Nc1ccc(C(=O)Nc2ccccc2C(=O)O)cc1 (stereo unspecified) | active: 79.4 µM | 

Row | Structure (SMILES) | Potency | activity change, negative = inhibition
49 | CN(C)n1cccc1/C=C(\C#N)S(=O)(=O)c1ccc(Cl)cc1 | inactive | 
50 | c1ccn2cc(-c3ccc4c(c3)OCO4)cc2c1 | active: 39.8 µM | 
51 | C[C@H]1CCC[C@]2(C)C[C@H]3OC(=O)C(CN4CCCCCC4)[C@H]3C=C12 (stereo partly specified) | inconclusive: 35.5 µM [inhibitor, single point] | 
52 | CCc1ccc(NC(=O)c2ccc(Cn3nc(N4CCN(c5ccccc5)CC4)ccc3=O)o2)cc1 | inconclusive: 20 µM [inhibitor, full curve] | 
53 | COc1ccc(/C=C(\C#N)c2nc3ccc(C)cc3[nH]2)cc1Oc1ccc(C(F)(F)F)cc1[N+](=O)[O-] | inconclusive: 39.8 µM [inhibitor, single point] | 
54 | COCCN(C(=O)c1cc(OC)c(OC)c(OC)c1)c1c(N)n(Cc2ccccc2)c(=O)[nH]c1=O | inconclusive: 1.78 µM [inhibitor, partial curve] | 
55 | COc1ccc(Cn2c3nc4ccccc4nc3c3c(=O)n(Cc4ccco4)cnc32)cc1 | active: 35.5 µM | 
56 | COc1ccc(-n2c(CNC(=O)c3cccs3)n[nH]c2=S)cc1 | inconclusive: 15.8 µM [inhibitor, single point] | 
57 | O=c1cc(COc2ncnc3ccccc23)nc2sccn12 | inconclusive: 15.8 µM [inhibitor, full curve] | 
58 | Cc1cccc(C)c1NC(=O)CCCn1c(=O)c2cccn2c2ccccc21 | inactive | 
59 | Cc1ccc(NC(=O)C(NCc2ccccn2)c2ccccc2)cc1 (stereo unspecified) | inactive | 
60 | CCOC(=O)c1cc(-c2ccccc2)n(CC(=O)Nc2ccccc2OCC)c1C | inactive | 
61 | Cn1nnnc1SCCCNCc1cc(Br)ccc1OCc1ccccc1F | inconclusive: 100 µM [inhibitor, single point] | 
62 | CCCc1cnc(N2CCN(C(=O)c3c(-c4ccccc4)noc3C)CC2)nc1 | inactive | 
63 | Cc1ccccc1SCC(=O)N1CCN(c2ccc(C(F)(F)F)cn2)CC1 | inconclusive: 89.1 µM [inhibitor, single point] | 
64 | COc1cc(CNCCSc2nnnn2C)ccc1OCc1ccc(F)cc1 | inconclusive: 11.2 µM [inhibitor, full curve] | 
65 | Nc1nc(Nc2ccccc2F)nc(NCCO)c1[N+](=O)[O-] | inconclusive: 89.1 µM [inhibitor, single point] | 
66 | CCOc1ccc(NC(=O)CSC2=Nc3ccccc3C3=NC(CCC(=O)NCc4cccs4)C(=O)N23)cc1 (stereo unspecified) | inconclusive: 89.1 µM [inhibitor, single point] | 
67 | C[C@@H]1CN(C(=O)c2nc3ccc(Cl)cn3c2CN(C)CCc2cnn(C)c2)C[C@H](C)O1 | inconclusive: 0.178 µM [inhibitor, partial curve, poor fit] | 
68 | c1coc(-c2nnc3sc(Cc4cccs4)nn23)c1 | active: 12.6 µM | 
69 | Cc1ccc(-n2nnnc2SCC(=O)NNC(=O)c2ccc([N+](=O)[O-])cc2)cc1 | active: 5.62 µM | 
70 | COc1cccc(NC(=O)c2ccc3c(c2)N(C)CCS3)c1 | inconclusive: 79.4 µM [inhibitor, single point] | 
71 | O=[N+]([O-])c1cc(CN2CCC(O)CC2)ccc1Cl | inconclusive: 100 µM [inhibitor, single point] | 
